Reference: publication PMC9561166
Results are given in words; binding and its absence hold for the method and conditions named. Binding seen in cells or lysates may run through a third protein. Some results given as binding are weak or reduced against the parent protein; the word gives no strength.

Sequences of proteins named here, by UniProt entry; tags and fusion partners are left off.
UniProt P14618: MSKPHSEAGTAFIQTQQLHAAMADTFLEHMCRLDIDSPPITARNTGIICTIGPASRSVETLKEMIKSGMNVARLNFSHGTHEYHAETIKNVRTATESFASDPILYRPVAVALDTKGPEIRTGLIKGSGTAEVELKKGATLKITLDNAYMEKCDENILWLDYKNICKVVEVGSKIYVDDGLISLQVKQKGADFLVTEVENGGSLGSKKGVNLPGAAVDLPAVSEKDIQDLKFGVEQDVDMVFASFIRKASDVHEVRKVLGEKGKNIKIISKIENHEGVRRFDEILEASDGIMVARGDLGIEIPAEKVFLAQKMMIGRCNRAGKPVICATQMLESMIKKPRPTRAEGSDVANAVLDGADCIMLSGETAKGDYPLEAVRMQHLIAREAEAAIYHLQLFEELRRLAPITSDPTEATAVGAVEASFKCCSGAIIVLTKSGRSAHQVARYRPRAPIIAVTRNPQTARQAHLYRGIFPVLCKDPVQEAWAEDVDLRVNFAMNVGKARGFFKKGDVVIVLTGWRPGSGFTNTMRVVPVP
UniProt O60260: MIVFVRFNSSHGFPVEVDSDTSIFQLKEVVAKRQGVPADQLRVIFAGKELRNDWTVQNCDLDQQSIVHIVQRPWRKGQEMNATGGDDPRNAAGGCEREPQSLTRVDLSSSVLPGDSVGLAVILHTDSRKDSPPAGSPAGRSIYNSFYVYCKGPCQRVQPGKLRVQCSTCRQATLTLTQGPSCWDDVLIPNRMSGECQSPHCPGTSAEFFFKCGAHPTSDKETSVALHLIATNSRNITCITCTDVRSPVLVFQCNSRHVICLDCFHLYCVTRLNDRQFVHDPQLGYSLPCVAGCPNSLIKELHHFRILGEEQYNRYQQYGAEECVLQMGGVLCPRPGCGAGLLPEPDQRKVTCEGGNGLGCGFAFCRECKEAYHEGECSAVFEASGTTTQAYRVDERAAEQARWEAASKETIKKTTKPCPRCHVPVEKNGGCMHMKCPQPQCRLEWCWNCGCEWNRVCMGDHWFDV

Target: Flag-tagged PKM2 (UniProt P14618)
Assay: co-IP; lysates of the indicated gastric cancer cells transfected with Flag-PKM2, incubated with anti-Flag agarose beads overnight at 4°C, five washes, Western blot for Parkin; MGC803 control or VAL-silenced; AGS after glucose starvation for 0, 1 and 2 h

binding: binds
Substance: Parkin (from UniProt O60260 1-465) (enzyme)
